In the supplement of paper PMC10849652:
This is one part of the list.

Amino acid sequences for entries named in this document (tags omitted). A change or cut given only in a name is not applied to a line headed by its entry.
UniProt Q9H6Q4: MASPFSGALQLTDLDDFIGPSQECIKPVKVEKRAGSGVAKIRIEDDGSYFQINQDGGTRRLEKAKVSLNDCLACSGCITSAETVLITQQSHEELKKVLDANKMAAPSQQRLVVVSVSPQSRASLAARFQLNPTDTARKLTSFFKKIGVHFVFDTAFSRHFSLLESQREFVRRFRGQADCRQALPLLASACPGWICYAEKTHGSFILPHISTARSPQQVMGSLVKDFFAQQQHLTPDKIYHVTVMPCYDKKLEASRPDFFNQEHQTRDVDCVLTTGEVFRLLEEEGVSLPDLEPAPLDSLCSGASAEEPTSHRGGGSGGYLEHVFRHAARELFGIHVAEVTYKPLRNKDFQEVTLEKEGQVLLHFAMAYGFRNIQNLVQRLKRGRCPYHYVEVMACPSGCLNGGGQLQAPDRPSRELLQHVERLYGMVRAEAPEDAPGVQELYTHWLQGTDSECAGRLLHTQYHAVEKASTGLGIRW
UniProt Q8WUX9: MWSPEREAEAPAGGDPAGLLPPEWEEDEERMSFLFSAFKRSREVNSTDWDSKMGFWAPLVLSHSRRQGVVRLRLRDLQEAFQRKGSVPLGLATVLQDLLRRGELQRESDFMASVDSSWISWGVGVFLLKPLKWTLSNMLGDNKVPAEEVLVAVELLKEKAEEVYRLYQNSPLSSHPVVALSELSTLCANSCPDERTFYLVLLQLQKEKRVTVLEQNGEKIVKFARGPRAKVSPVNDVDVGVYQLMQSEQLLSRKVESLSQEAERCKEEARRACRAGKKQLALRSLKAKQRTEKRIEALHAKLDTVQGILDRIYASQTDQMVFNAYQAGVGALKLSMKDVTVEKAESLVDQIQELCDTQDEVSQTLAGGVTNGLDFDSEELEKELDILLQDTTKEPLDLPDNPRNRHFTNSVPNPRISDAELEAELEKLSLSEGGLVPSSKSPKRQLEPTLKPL
UniProt Q7Z7K0: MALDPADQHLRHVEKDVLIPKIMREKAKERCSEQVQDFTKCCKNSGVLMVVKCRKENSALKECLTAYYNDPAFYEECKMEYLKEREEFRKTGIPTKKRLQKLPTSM
UniProt P02452, whole entry, looked up: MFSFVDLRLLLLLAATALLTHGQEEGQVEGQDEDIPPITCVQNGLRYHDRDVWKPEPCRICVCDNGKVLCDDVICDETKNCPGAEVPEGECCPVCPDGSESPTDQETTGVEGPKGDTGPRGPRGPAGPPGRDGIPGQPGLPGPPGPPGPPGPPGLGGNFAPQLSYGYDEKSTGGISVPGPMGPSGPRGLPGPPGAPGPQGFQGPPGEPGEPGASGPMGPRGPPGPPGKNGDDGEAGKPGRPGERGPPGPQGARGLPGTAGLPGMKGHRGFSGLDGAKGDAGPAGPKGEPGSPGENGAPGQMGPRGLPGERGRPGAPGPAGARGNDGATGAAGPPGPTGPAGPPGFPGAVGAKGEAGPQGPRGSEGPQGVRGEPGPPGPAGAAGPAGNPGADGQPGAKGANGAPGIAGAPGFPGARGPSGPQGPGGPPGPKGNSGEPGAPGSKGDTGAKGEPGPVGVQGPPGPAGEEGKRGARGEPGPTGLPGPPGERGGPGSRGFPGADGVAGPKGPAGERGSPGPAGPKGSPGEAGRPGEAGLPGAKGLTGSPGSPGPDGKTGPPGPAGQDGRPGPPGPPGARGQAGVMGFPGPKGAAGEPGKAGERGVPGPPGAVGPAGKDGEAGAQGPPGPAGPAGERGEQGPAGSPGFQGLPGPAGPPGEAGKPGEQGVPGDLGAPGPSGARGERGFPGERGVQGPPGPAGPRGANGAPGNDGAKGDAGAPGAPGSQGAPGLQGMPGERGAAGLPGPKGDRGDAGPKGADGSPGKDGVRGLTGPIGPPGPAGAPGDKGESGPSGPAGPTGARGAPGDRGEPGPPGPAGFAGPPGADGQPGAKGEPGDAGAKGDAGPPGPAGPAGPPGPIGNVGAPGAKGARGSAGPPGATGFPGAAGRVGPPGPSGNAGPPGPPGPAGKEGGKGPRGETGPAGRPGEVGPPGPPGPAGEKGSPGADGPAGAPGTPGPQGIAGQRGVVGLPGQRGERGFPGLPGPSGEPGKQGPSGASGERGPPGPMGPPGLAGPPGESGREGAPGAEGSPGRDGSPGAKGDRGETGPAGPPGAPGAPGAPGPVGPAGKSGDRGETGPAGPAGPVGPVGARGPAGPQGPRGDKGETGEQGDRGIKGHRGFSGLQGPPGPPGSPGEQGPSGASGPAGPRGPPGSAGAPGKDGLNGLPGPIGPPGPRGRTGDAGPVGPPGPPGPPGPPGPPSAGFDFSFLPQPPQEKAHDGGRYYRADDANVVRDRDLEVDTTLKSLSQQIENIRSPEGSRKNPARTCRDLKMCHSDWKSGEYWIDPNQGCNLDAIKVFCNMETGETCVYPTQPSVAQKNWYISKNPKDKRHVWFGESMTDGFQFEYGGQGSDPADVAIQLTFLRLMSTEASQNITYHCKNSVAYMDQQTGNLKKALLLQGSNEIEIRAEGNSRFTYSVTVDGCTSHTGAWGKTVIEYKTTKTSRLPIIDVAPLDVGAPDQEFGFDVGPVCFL
UniProt Q9Y3D0: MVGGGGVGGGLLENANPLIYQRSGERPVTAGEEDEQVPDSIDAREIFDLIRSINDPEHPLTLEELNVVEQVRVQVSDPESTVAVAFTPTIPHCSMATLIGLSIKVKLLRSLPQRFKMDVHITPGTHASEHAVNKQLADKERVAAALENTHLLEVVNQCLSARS
UniProt P05452, whole entry, looked up: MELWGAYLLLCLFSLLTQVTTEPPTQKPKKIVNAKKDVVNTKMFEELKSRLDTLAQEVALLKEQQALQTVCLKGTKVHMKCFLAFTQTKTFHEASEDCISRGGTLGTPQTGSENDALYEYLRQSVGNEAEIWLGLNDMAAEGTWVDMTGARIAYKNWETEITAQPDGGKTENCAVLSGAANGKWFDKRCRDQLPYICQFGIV
UniProt Q8WWK9: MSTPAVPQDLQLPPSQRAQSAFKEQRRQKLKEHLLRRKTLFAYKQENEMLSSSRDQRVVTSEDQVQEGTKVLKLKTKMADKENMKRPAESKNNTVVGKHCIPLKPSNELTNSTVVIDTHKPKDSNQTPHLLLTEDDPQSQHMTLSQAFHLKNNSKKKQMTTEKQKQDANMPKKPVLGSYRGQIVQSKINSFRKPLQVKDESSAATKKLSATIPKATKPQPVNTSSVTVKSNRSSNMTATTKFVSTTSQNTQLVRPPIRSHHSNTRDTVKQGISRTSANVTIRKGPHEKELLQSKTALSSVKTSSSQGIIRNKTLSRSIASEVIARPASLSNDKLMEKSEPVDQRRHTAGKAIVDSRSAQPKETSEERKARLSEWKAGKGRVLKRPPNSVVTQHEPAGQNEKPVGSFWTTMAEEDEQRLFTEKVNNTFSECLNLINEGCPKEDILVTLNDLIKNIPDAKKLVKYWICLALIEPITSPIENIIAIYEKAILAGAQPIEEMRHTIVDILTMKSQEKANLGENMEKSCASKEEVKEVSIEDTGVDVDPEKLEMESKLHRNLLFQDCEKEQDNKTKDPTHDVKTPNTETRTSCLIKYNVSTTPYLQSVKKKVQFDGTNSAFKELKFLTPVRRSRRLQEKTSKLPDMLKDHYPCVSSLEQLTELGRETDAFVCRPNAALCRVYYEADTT
UniProt Q9H9E3: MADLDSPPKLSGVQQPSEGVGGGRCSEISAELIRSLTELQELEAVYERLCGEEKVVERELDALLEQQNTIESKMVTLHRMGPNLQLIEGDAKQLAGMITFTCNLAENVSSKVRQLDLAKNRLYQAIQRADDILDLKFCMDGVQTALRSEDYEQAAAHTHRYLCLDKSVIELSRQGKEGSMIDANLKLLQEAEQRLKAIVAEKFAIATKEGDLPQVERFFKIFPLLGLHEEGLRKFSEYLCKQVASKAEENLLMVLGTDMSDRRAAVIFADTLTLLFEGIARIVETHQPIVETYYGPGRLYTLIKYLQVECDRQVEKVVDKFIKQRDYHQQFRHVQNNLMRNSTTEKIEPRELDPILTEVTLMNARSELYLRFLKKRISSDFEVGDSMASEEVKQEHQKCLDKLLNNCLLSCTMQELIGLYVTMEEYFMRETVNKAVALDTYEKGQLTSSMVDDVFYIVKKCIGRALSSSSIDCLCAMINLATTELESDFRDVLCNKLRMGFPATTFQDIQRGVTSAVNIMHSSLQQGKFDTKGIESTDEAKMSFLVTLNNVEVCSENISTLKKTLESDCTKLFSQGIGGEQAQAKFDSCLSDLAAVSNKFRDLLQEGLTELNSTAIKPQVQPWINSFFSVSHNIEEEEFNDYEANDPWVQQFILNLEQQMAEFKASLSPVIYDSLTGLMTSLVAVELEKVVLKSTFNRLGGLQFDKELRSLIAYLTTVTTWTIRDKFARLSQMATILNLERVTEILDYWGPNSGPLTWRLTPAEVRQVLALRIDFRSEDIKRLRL
UniProt Q86WW8: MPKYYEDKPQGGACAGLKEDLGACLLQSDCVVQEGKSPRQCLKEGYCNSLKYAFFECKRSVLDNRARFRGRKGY
UniProt P51801: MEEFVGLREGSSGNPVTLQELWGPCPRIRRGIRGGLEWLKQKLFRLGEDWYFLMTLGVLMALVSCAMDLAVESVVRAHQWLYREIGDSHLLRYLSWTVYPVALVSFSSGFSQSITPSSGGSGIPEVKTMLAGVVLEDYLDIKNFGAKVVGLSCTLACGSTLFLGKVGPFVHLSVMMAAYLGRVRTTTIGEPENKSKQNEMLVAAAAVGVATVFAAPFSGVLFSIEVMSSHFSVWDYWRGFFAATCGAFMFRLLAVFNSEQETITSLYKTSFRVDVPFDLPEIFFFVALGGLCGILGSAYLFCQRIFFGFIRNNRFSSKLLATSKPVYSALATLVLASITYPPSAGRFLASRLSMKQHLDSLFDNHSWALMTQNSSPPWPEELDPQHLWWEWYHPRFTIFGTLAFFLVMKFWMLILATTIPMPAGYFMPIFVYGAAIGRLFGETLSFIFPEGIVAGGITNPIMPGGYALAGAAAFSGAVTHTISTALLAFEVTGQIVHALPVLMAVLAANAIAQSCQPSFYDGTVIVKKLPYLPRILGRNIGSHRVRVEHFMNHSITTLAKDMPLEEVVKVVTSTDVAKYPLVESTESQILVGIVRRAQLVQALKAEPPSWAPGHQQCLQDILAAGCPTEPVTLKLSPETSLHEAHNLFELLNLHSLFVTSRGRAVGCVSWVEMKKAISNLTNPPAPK
UniProt Q96NY7: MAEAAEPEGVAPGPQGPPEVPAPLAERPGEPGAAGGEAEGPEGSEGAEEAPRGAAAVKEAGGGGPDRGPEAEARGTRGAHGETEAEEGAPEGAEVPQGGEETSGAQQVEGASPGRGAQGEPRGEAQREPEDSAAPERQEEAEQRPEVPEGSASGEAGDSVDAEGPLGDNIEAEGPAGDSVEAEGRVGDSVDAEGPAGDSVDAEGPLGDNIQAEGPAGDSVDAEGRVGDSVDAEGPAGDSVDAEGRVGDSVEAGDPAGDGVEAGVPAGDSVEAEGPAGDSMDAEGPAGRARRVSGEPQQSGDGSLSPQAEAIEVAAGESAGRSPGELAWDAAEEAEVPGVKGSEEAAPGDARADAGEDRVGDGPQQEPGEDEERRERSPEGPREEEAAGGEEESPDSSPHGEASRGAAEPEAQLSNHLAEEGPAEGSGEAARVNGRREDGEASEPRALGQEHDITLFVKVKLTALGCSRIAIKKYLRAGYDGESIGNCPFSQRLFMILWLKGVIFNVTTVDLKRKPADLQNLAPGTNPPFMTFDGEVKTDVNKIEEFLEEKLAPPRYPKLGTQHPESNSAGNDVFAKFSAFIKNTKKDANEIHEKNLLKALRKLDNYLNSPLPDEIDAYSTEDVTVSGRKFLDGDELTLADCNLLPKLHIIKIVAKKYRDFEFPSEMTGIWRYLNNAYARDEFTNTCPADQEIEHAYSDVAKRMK
UniProt P56277: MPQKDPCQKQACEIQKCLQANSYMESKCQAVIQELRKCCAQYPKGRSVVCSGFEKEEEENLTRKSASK
UniProt Q14677: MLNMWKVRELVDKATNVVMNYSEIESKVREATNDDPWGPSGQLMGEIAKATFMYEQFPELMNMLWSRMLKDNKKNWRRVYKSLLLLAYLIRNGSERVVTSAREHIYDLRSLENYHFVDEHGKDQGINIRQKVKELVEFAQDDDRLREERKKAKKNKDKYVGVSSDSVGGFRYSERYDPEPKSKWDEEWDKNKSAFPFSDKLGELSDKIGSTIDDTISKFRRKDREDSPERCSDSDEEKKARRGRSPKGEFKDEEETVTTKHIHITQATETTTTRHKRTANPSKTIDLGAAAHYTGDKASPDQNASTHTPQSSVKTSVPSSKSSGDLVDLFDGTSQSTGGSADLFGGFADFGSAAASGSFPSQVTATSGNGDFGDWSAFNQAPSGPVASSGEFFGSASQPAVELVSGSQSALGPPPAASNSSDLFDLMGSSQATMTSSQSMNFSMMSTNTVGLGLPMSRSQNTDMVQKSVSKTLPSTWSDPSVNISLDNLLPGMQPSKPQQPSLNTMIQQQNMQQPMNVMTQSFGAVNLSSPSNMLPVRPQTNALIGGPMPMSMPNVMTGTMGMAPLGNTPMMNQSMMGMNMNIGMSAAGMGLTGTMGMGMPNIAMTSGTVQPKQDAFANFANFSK

Tests used:
Assay in all cases: log2 fold change, soluble protein after heating vs DMSO (PISA); higher = thermal stabilisation; K562 cells, 10 uM, 30 min; active = over 0.2 and 3.5 SD of the protein, either way, in both replicates (recomputed)
[1] = compound: COC1=CC=C(C=C1)CN2C=CC3=C2C=C(C=C3)C(=O)NO
Method in brief: (§1)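 K562 cells at 2×10^6 cells/mL were treated with 10 μM compound for 30 min. Aliquots were heated for 3 min across 48°C-58°C, pooled, and extracted in PBS with 0.5% NP-40 at 4°C; soluble protein was the supernatant after 21,000xg for 90 min. Soluble protein was quantified by TMTpro 16plex LC-MS/MS with channel sums equalised, and reported as log2 fold change in thermal stability against DMSO controls, with values from duplicates.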

filanesib = compound: CON(C)C(=O)N1N=C(c2cc(F)ccc2F)S[C@@]1(CCCN)c1ccccc1 [filanesib]
Method in brief: as §1

zotarolimus = compound: CO[C@H]1C[C@@H]2CC[C@@H](C)[C@@](O)(O2)C(=O)C(=O)N2CCCC[C@H]2C(=O)O[C@H]([C@H](C)C[C@@H]2CC[C@H](n3cnnn3)[C@H](OC)C2)CC(=O)[C@H](C)/C=C(\C)[C@@H](O)[C@@H](OC)C(=O)[C@H](C)C[C@H](C)/C=C/C=C/C=C/1C [zotarolimus]
Method in brief: as §1

idasanutlin = compound: COc1cc(C(=O)O)ccc1NC(=O)[C@@H]1N[C@@H](CC(C)(C)C)[C@](C#N)(c2ccc(Cl)cc2F)[C@H]1c1cccc(Cl)c1F [idasanutlin]
Method in brief: as §1

alisertib = compound: COc1cc(Nc2ncc3c(n2)-c2ccc(Cl)cc2C(c2c(F)cccc2OC)=NC3)ccc1C(=O)O [alisertib]
Method in brief: as §1

[2] = compound: COc1cc2nc(-c3cc(F)ccc3O)nc(N[C@@H]3CNC[C@H]3C(C)(C)O)c2cc1OC
Method in brief: as §1

gefitinib = compound: COc1cc2ncnc(Nc3ccc(F)c(Cl)c3)c2cc1OCCCN1CCOCC1 [gefitinib]
Method in brief: as §1

[3] = compound: COc1cccc2cc(-c3nc([C@H]4CC[C@H](C(=O)O)CC4)n4ncnc(N)c34)[nH]c12
Method in brief: as §1

lapatinib = compound: CS(=O)(=O)CCNCc1ccc(-c2ccc3ncnc(Nc4ccc(OCc5cccc(F)c5)c(Cl)c4)c3c2)o1 [lapatinib]
Method in brief: as §1

pictilisib = compound: CS(=O)(=O)N1CCN(Cc2cc3nc(-c4cccc5[nH]ncc45)nc(N4CCOCC4)c3s2)CC1 [pictilisib]
Method in brief: as §1

Measured: log2 fold change

CIAO3 (UniProt Q9H6Q4)
inactive: [1] 0.028 | filanesib -0.031 | zotarolimus 0.025 | idasanutlin -0.031 | alisertib -0.006 | [2] 0.03 | gefitinib -0.004 | [3] 0.101 | lapatinib -0.036 | pictilisib 0.133

CMSS1 (UniProt Q9BQ75)
inactive: [1] 0.001 | filanesib 0.177 | zotarolimus -0.03 | idasanutlin -0.127 | alisertib -0.146 | [2] 0.26 | gefitinib -0.169 | [3] 0.022 | lapatinib 0.023 | pictilisib -0.022

CNOT2 (UniProt Q9NZN8)
inactive: [1] -0.006 | filanesib 0.006 | zotarolimus 0.014 | idasanutlin 0.005 | alisertib -0.01 | [2] 0.021 | gefitinib 0.017 | [3] -0.021 | lapatinib 0.048 | pictilisib 0.04

CNST (UniProt Q6PJW8)
inactive: [1] 0.014 | filanesib -0.055 | zotarolimus 0.013 | idasanutlin 0.01 | alisertib -0.004 | [2] 0.015 | gefitinib 0.007 | [3] 0.032 | lapatinib 0.018 | pictilisib 0.066

Two consecutive records out of the list so far:
CIAO3 (UniProt Q9H6Q4)
inactive: [1] 0.028 | filanesib -0.031 | zotarolimus 0.025 | idasanutlin -0.031 | alisertib -0.006 | [2] 0.03 | gefitinib -0.004 | [3] 0.101 | lapatinib -0.036 | pictilisib 0.133

CMSS1 (UniProt Q9BQ75)
inactive: [1] 0.001 | filanesib 0.177 | zotarolimus -0.03 | idasanutlin -0.127 | alisertib -0.146 | [2] 0.26 | gefitinib -0.169 | [3] 0.022 | lapatinib 0.023 | pictilisib -0.022

Next part:

CHMP7 (UniProt Q8WUX9)
inactive: [1] -0.112 | filanesib 0.008 | zotarolimus -0.118 | idasanutlin -0.033 | alisertib -0.082 | [2] -0.358 | gefitinib 0.213 | [3] 0.084 | lapatinib 0.024 | pictilisib -0.008

CMC1 (UniProt Q7Z7K0)
inactive: [1] -0.035 | filanesib -0.032 | zotarolimus 0.026 | idasanutlin 0.11 | alisertib -0.112 | [2] -0.084 | gefitinib 0.046 | [3] 0.02 | lapatinib 0.031 | pictilisib -0.217

COL1A1 (UniProt P02452)
inactive: [1] 0.032 | filanesib 0.188 | zotarolimus -0.27 | idasanutlin 0.12 | [2] 0.04 | lapatinib -0.052

COL14A1 (UniProt Q05707)
inactive: [1] 0.133 | filanesib 0.068 | alisertib -0.234 | [2] -0.011 | gefitinib -0.044 | [3] 0.064 | lapatinib -0.06 | pictilisib -0.05

CHURC1-FNTB (UniProt B4DL54)
inactive: [1] 0.004 | filanesib 0.071 | idasanutlin 0.006 | alisertib 0.057 | [2] -0.007 | [3] -0.02 | lapatinib -0.052 | pictilisib 0.055

COG3 (UniProt Q96JB2)
inactive: [1] 0.125 | zotarolimus 0.049 | alisertib 0.141 | [3] -0.15

CNOT8 (UniProt Q9UFF9)
inactive: [1] -0.058 | filanesib -0.031 | zotarolimus 0.074 | alisertib -0.242 | [2] -0.053 | gefitinib -0.016 | [3] 0.076 | lapatinib 0.142

CLASP2 (UniProt O75122)
inactive: [1] 0.015 | zotarolimus 0.235 | idasanutlin 0.101 | alisertib -0.025 | [2] 0.125 | gefitinib 0.071 | [3] 0.072 | lapatinib 0.032

COG8 (UniProt Q96MW5)
inactive: [1] -0.025 | zotarolimus 0.045 | alisertib -0.136 | [3] 0

CIAO2B (UniProt Q9Y3D0)
inactive: [1] -0.06 | filanesib 0.363 | zotarolimus -0.075 | alisertib -0.212 | [2] -0.135 | gefitinib 0.084 | [3] -0.154 | lapatinib -0.037

CNOT11 (UniProt Q9UKZ1)
inactive: [1] -0.006 | filanesib -0.008 | zotarolimus -0.023 | idasanutlin 0.008 | alisertib -0.027 | gefitinib -0.003 | [3] 0.039

CLEC3B (UniProt P05452)
inactive: filanesib 0.077 | zotarolimus -0.549 | idasanutlin 0.206 | alisertib 0.018 | [2] 0.172 | gefitinib -0.316 | [3] 0.434 | lapatinib 0.139

CNNM2 (UniProt Q9H8M5)
inactive: [1] -0.18 | filanesib 0.25 | zotarolimus -0.138 | alisertib -0.295 | [2] -0.026 | gefitinib 0.048 | [3] 0.163 | lapatinib 0.003 | pictilisib 0.182

CKAP2 (UniProt Q8WWK9)
inactive: [1] -0.024 | filanesib 0.757 | zotarolimus -0.052 | alisertib -0.106 | [2] -0.08 | gefitinib -0.058 | [3] -0.136 | lapatinib 0.185

COG4 (UniProt Q9H9E3)
inactive: [1] -0.155 | filanesib -0.037 | zotarolimus 0.189 | gefitinib -0.048 | pictilisib -0.278

COA5 (UniProt Q86WW8)
inactive: [1] 0.094 | zotarolimus -0.126 | idasanutlin 0.221

CHTOP isoform 3 (UniProt Q9Y3Y2)
inactive: [1] -0.065 | filanesib 0.37 | zotarolimus 0.226 | alisertib -0.177 | [3] -0.294

CLCNKB (UniProt P51801)
inactive: [1] -0.146 | zotarolimus 0.136 | idasanutlin 0.157 | [2] -0.031 | lapatinib -0.012

CLIC6 (UniProt Q96NY7)
inactive: [1] -0.043 | filanesib 0.148 | alisertib 0.066 | gefitinib 0.038 | [3] -0.007

CHST12 (UniProt Q9NRB3)
inactive: [1] -0.003 | filanesib -0.062 | zotarolimus -0.008 | pictilisib -0.033

CHST14 (UniProt Q8NCH0)
inactive: [1] -0.057 | zotarolimus 0 | idasanutlin 0.003 | alisertib -0.131 | [2] -0.048 | gefitinib -0.051 | [3] -0.022 | lapatinib 0.053 | pictilisib 0.059

CMC4 (UniProt P56277)
inactive: [1] -0.086 | zotarolimus -0.032 | idasanutlin -0.008 | [2] 0.018 | lapatinib -0.031 | pictilisib 0.051

COG1 (UniProt Q8WTW3)
inactive: [1] 0.179 | filanesib 0.101 | zotarolimus 0.107 | [2] 0.096 | lapatinib -0.053 | pictilisib -0.114

COL1A2 (UniProt P08123)
inactive: [1] -0.117 | filanesib 0.176 | zotarolimus -0.385 | idasanutlin 0.019 | gefitinib 0.297 | pictilisib -0.02

CLSTN1 (UniProt O94985)
inactive: [1] 0.029 | filanesib 0.168 | zotarolimus -0.053 | idasanutlin -0.109 | alisertib 0.625 | [2] 0.127 | [3] 0.027 | lapatinib -0.4

CLINT1 (UniProt Q14677)
inactive: [1] -0.371 | zotarolimus 0.263 | idasanutlin -0.012 | alisertib -0.137 | gefitinib 0.077 | [3] -0.055
